This note sets out measurements from the RNAGym collection of RNA variant scans (doi:10.1126/science.aae0568).

The labels stand for the following.
B1: tRNA (parent)
chain: GUUCCGUUGGCGUAAUGGUAACGCGUCUCCCUCCUAAGGAGAAGACUGCGGGUUCGAGUCCCGUACGGAACG

Variants at the background level are over-represented here. Bounds are passed on as bounds.

The variants in this series derive from B1. Description: yeast fitness relative to wild type (ratio to wild type); higher = fitter; tRNA-Arg(CCU), competitive growth, 37 C, YPD. In short, it runs like this:
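Variants of the tRNA-Arg(CCU) gene were chemically synthesised with a 3% per-site mutation rate across 69 sites and placed at the native genomic locus in Saccharomyces cerevisiae. Six parallel replicates of the pooled strains were competed in YPD at 37°C for 24 hours, and gene amplicons from the start and end populations were read by 100-nucleotide paired-end sequencing. Darwinian fitness relative to wild type was derived from changes in genotype frequencies. Genotypes required ≥ 100 starting reads, and estimates < 0.5 were set to 0.5.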
For the variant GUUCCCUUGGCGUAAUGGUAACGCGUCUCCCUCCUAAGGAGAAGACUGAGGGUUCGAGUCCCGUACGGAUCG, the yeast fitness was at most 0.5. For GUUCCGUUGGCGUAGUGGUGACGCGUCUCCCUCAUAAGGAGAAGACUGCGGGUUCGAGUCCGGUACGCAACG, the yeast fitness is at most 0.5.

Take GGUCCGUUGGAGUAAUGGUAACGCGUCUCACUCCUAAGGAGAAGACUGCGGGUUCGUGUCCCGUACGGAACG: the yeast fitness is at most 0.5. GGUACGUUGGCGUAAUGGUAACGCGUCUCCCUCCUAUGGAGAAGACUGCGGGUUCGAGUCCAGUACGGAACG: the yeast fitness is at most 0.5.

Turning to GUUCCGUUGGCGUAAUGGUAACGCGUCUCCCUCCUAAGGUGAAGACAGCGGGCUCGAAUCCCGUACGGACCG, the yeast fitness is at most 0.5.

With GUUCCGUUGGCGUAAUGGUAACGCGUCUGCCUCCUAAGGAGAAGACAGCGGGUUCGAAUCCCGUAAGGAACG, the yeast fitness was at most 0.5.

Regarding GUUCCGUUGGCGUAAUGGUAACGCGUCUCGCUCCUAAGGAGAAGACUGCGGGUUCGAGUCCCGUACGGAACG, the yeast fitness worked out at 0.68.

As for GUUCCGUUCGCGUAAUGGUAACGUGUCUCCCUCCUAAGGAGAAGACUCCGAGUUCGAGUCCCGUACGGAACG, the yeast fitness is at most 0.5. Take GUUCAGUUGGCGUAAUGGAAACGCGUCUCCCUCCUAACGAGAAGACUGCGGGUUCGAGUCCCGUACGGAACG: the yeast fitness was at most 0.5. GUUCGGUUGGCGUAAUGGUAACGCGUCUCCCUCCUAAGGAGAAGGAUGCGGGUUCGAGUCCCGGAUGGAACG: the yeast fitness was at most 0.5. In the case of GUUCCGUUGGCGUAAUGGUAACGCGUCUCCCUCCUAAGGAGAAGACUGCGGGUUCGAGCCAUGUACGGAACG, the yeast fitness is at most 0.5. Turning to GUUCCGUUGGCGUUAUGGUAACGCGUCUCCCUCCUAAGGAGAAGACUGGGGGUUCGUGUCCCGUACGGAACG, the yeast fitness was at most 0.5. Take GUUCCGUUGGCGUAACGGUAACGCGUCUCCCUCCUACGGAGAAGACUGCGGGUUCCAGUCCCGUACGGAACG: the yeast fitness is at most 0.5. Turning to GUUCCGUUAGCGUAAUGGUAUCGCGUCUCCCUCCUGAGGCGAAGACUGCGGGUUCGAGUCCCGUACGGUACG, the yeast fitness was at most 0.5. Consider GUUCCGUUGGCGUAAUGCUAACGCGUCUCCCUCCUAAGGAGAAGACUGCGGGUUCGCGUCCCGUACAGUACG, for which the yeast fitness is at most 0.5. With GUUCCGUUGGCGUAAUGGUAACGCGUCUCCCUCCUUAGGAGAAGACUGCGGGUUCGAGUUCCGUACGGAACG, the yeast fitness was determined as 0.566.

Regarding GUUCCGAUGCCGUAAUGGUAAUGCGUCUCCCUCCUAAGGAGAAGACUGCGGGUUCGAGUCCCGUACGGAACG, the yeast fitness was at most 0.5. Take GUUCCGUUGGCGUAAAGGUAACGCGUCUCCCUGCUAAGGAGAAGACUGCGGGUUCGAAUCCCGUACGGAACG: the yeast fitness is at most 0.5.

On to GAUCCGUUGGCGUAAUGGUAACGCGUCUCCCUCCUAAGGUGAAGACUCCGGGUUCGAGUCCCGUACGGAACG, for which the yeast fitness is at most 0.5.

Regarding GUUCCGUUGCCGUAAUGGUAACGGGUCUCCCUCCUAAGGAGAACGCUGCGCGUUAGAGUCCCGUACGGUACG, the yeast fitness was at most 0.5. GUUCCGUUGGCGUAAUGGUAAAGCGUCUUCCUCCUAAGGAGAAGACUGCGGGUUCGAGUCCCGUACGGACCG: the yeast fitness is at most 0.5.

Turning to GUUCCGUUGGCGUAAUGGUAACGCGUCUCCCUCCUAAGGAGCAGACUGCGGGUUGGAGUCCCGUACGCAACG, the yeast fitness was at most 0.5.

GUUCCGUUGGCGUAAUGGUAACGCGUCUCUCUCAUUAGGAGAAGACUGCGGGUUCGAGUCCCGUACAGAACG: the yeast fitness is at most 0.5. As for GUUCCGUUGGCGUCAUGGUAACGCGUCUCCCUACUAAGGAGAAGACUGCGGGUUGGAGUGCCGUACGGAACG, the yeast fitness was at most 0.5.

As for GUUCCGUUGGCGUAAUGGUAUCGGGUCUCCCUCCUAAGGAGAAGACUGAGGGUGCGAGUCCCGUACGGAACG, the yeast fitness is 0.56. Take GUUCCGUUGGCGUAAUGGUAACGCGUCUCCCUCCUAGGGAGAACACUGCGGGUCCGUGUCCCGUACGCAACG: the yeast fitness was at most 0.5.

GUUCCGUUGCCGUAAUGGUAACGCGUCUCCGUCCUAAGGAAAAGACUGCGGGUUCGAGUCCCGUACGGAACG: the yeast fitness is at most 0.5. Consider GUACCGUUGGCGUCAUGGUAACGCGUCUCCCUCCUAAGGAGCAGACCGCGGGUUCGAGUCCCGUACGGAACG, for which the yeast fitness is at most 0.5. GUACCGUUGGCGUAAUGGUAAUGAGUUUCCCUCCUAAGGAGAAGACUGCGGCUUCGAGUCCCGUACGGAACG: the yeast fitness is at most 0.5. GUUCCGUUGGCGUAAUGGUAACGCGGCUCUCUCCUAAGGAGAAGACUGCGGGUUCGAGGCCCGGACGAAACG: the yeast fitness was at most 0.5. As to GUUCCGUUGGCGUAAUGGUAACGCGUCUCUCUCCUAAGGAGAAAACUGCGGGUUCGUGUCCCGUACGGAACG, the yeast fitness is at most 0.5.

For GUUCCGUUAGCGUAAUGGUAACGCGUGUCCCUCCUAAGGAGAAGACUGCGGGUUCGAGUGCAGUACGGAACG, the yeast fitness is at most 0.5.

For the variant GUUCGGUUGGCGUAAUGGUAACGCGUCUCCCUCCUAACGACAAGACUGCGGGUUCGAGUCCCGUGCGGAACG, the yeast fitness was at most 0.5. Turning to GUUCCGCUGGCGUAAUGGUAACGCGUCUCCCUCCUAAGGAGAAGACUGCGGGUUCGAGUCCCGUACUGAUCG, the yeast fitness amounted to 0.544. In the case of GUAACGUUGGCGUAAUGGUAACGCGUCUCCCUCCAAUGGAGAAGAUUGCGGGUUCGAGUCCCGUCCGGAACG, the yeast fitness is at most 0.5.

Turning to GUUCCGAUGGCGUAAUGGUAACGCGUCUCCCUCCUAUGGAGAAGACUGCAGGCUCGAGUCCAGUACGGUACG, the yeast fitness is at most 0.5. On to GAUCCGUUGGCGUAAUGGUAACCCGUCUCCCUCCUUAGGAGAAGACUGCGGGUUCGAGUCCCGUAUAGAACG, for which the yeast fitness is at most 0.5. For the variant GUUCCGUUGGCGUAAUGGUAUCGCGUCACCCUCCUAAGGUGAAGACUGCGGGUUAGAGUCCCGUACGGAACG, the yeast fitness is at most 0.5.
